Laboratory results: PubChem BioAssay AID504784 (Drosophila RNAi Screening Center, 2011)
The deposit covers about 17,000 reagents; shown is an unselected part of those with a known target gene and a result. 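Each column is one replicate's B-score; the combined score over replicates was not deposited, so single values may mislead.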 Reagent sequences are not shown.

Assay: 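Search for regulators of lipid droplet storage in oleate-fed fly cells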 (primary screen)
System: Drosophila Kc167 embryonic cells
Reagent: long dsRNA against Drosophila genes, about 250 ng dsRNA per well
Duration: 4 days
Conditions: cells fed 400 µM oleic acid bound to BSA
Read-out: 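Microscope images give a droplet-to-nucleus area ratio, taken as log and converted to a screen-wide B-score; higher values mean greater lipid storage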
Scale: droplet/nuclear area B-score: higher = more stored lipid (overstorage)

Target gene,amplicon,"droplet/nuclear area B-score, replicate 1","droplet/nuclear area B-score, replicate 2","droplet/nuclear area B-score, replicate 3"
CG15023,DRSC08477,1.38,-0.326,
CG4806,DRSC04491,0.0227,0.239,
aspr,DRSC20689,0.541,-0.279,
aspr,DRSC20690,1.21,1.19,
CG6726,DRSC16101,1.53,0.978,
PIP4K,DRSC17213,-0.177,-0.445,
Cyp4d2,DRSC18458,-1.55,-1.02,
CG3198,DRSC18292,-0.323,0.385,
CG14244,DRSC14739,0.8,-0.996,
Or65a,DRSC08808,1.33,0.314,
dikar,DRSC09699,-0.665,-1.73,
dikar,DRSC22261,-0.323,-0.391,
Pkc53E,DRSC07510,-0.0501,0.646,
Cyp12b2,DRSC07364,0.917,0.263,
mas,DRSC08720,1.25,-0.0684,
Timp,DRSC17082,0.227,0.00171,
SP,DRSC09664,1.71,0.18,
CG7656,DRSC10900,1.27,-1.43,0.347
CSN1a,DRSC01951,1.36,0.355,
CG32650,DRSC19899,-0.253,-1.16,-0.529
RhoGAP1A,DRSC20649,-0.757,-0.718,
RhoGAP1A,DRSC20651,0.196,0.0657,
Bem46,DRSC00275,-0.178,0.665,
Prm,DRSC08941,0.632,1.79,
Prm,DRSC08942,-0.587,-1.16,
Prm,DRSC11255,0.635,0.496,
Qsox2,DRSC15287,0.819,-1.6,
wa-cup,DRSC12511,0.0205,-0.0104,
CG16898,DRSC06635,1.36,-0.612,
CG31082 (retired record),DRSC13775,2.13,-0.106,
CG11786,DRSC14389,1.01,-0.421,
CG15578,DRSC18066,-0.251,-0.932,
CG13891,DRSC08361,0.206,0.747,
CG13699,DRSC10048,1.63,3.22,
CG15153,DRSC02454,2.35,1.75,
CG6230,DRSC01989,-0.974,-1.27,
CG11052,DRSC14288,-1.18,0.689,
CG3984,DRSC15530,0.354,0.412,
Phae1,DRSC02554,1.05,1.13,
hdm,DRSC18013,0.358,-1.2,
Pgant35A,DRSC03557,0.753,-0.435,0.185
Su(z)12,DRSC11293,2.39,1.25,
CG3277,DRSC00588,-1.91,-1.91,
Golgin97,DRSC06895,1.14,-0.517,
robo3,DRSC00374,1.46,-1.61,
robo3,DRSC00375,3.29,-0.108,
robo3,DRSC00684,-0.426,0.105,
Sox15,DRSC07555,0.875,-0.0757,
AdamTS-B,DRSC18346,0.488,-0.0795,
CG18231,DRSC10307,-0.567,-0.0686,
Cnb,DRSC08569,-1.68,-3.09,
CG14488,DRSC06460,-1.35,0.774,
CG42286 (retired record),DRSC14357,-0.519,-0.628,
CG6304,DRSC02948,-2.42,0.869,
CG11839,DRSC14398,0.25,-0.002,
bs,DRSC04676,1.38,-1.67,0.937
bs,DRSC23068,-0.265,-1.02,

Laid out differently: entries from further up.
Timp [DRSC17082]
- droplet/nuclear area B-score, replicate 1: 0.227
- droplet/nuclear area B-score, replicate 2: 0.00171

SP [DRSC09664]
- droplet/nuclear area B-score, replicate 1: 1.71
- droplet/nuclear area B-score, replicate 2: 0.18

CG7656 [DRSC10900]
- droplet/nuclear area B-score, replicate 1: 1.27
- droplet/nuclear area B-score, replicate 2: -1.43
- droplet/nuclear area B-score, replicate 3: 0.347

CSN1a [DRSC01951]
- droplet/nuclear area B-score, replicate 1: 1.36
- droplet/nuclear area B-score, replicate 2: 0.355

CG32650 [DRSC19899]
- droplet/nuclear area B-score, replicate 1: -0.253
- droplet/nuclear area B-score, replicate 2: -1.16
- droplet/nuclear area B-score, replicate 3: -0.529

RhoGAP1A [DRSC20649]
- droplet/nuclear area B-score, replicate 1: -0.757
- droplet/nuclear area B-score, replicate 2: -0.718

RhoGAP1A [DRSC20651]
- droplet/nuclear area B-score, replicate 1: 0.196
- droplet/nuclear area B-score, replicate 2: 0.0657
